{"source": "patent US8906902B2", "about": "“Antibacterial compounds” (Biota Europe Ltd., priority 2012, dated 2014)", "note": "Some results were stated once for a whole list of compounds, not compound by compound.", "data": [{"experiment": "Chemical stability assay", "format": "physicochemical", "details": "pH 7.4, at 24 hours", "units": {"compound remaining": "%"}, "values": [{"smiles": "CCNC(=O)Nc1nc2cc(-c3cnc(C(C)OC(=O)CCC(=O)O)nc3)cc(-c3ccccn3)c2s1", "note": "(stereo not shown) [Compound 19, 4-[1-[5-[2-(ethylcarbamoylamino)-7-(2-pyridyl)-1,3-benzothiazol-5-yl]pyrimidin-2-yl]ethoxy]-4-oxo-butanoic acid]", "compound remaining": "≥ 95"}, {"smiles": "CCNC(=O)Nc1nc2cc(-c3cnc(C4(OC(=O)CCC(=O)O)COC4)nc3)cc(-c3ccccn3)c2s1", "note": "[Compound 123, 4-[3-[5-[2-(ethylcarbamoylamino)-7-(2-pyridyl)-1,3-benzothiazol-5-yl]pyrimidin-2-yl]oxetan-3-yl]oxy-4-oxo-butanoic acid]", "compound remaining": "≥ 95"}, {"smiles": "CCNC(=O)Nc1nc2cc(-c3cnc([C@H](C)OC(=O)CCC(=O)O)nc3)cc(-c3ccccn3)c2s1", "note": "[Compound 133, 4-[(1S)-1-[5-[2-(ethylcarbamoylamino)-7-(2-pyridyl)-1,3-benzothiazol-5-yl]pyrimidin-2-yl]ethoxy]-4-oxo-butanoic acid]", "compound remaining": "≥ 95"}, {"smiles": "CCNC(=O)Nc1nc2cc(-c3cnc([C@@H](C)OC(=O)CCC(=O)O)nc3)cc(-c3ccccn3)c2s1", "note": "[Compound 134, 4-[(1R)-1-[5-[2-(ethylcarbamoylamino)-7-(2-pyridyl)-1,3-benzothiazol-5-yl]pyrimidin-2-yl]ethoxy]-4-oxo-butanoic acid]", "compound remaining": "≥ 95"}]}]}
